PubChem BioAssay AID504808 | Drosophila RNAi Screening Center, 2011

- Screen: 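Chromatin factors that keep E2F targets switched off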 (primary screen)
- Cell system: Drosophila S2 cells
- Knock-down reagent: long dsRNA against Drosophila genes
- Read-out: 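Firefly luciferase driven by E2F sites, normalised to Renilla luciferase on the same minimal promoter, measured by plate reader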
- Direction: E2F firefly: higher = more E2F reporter activity; Renilla normaliser: higher = more normaliser reporter signal
- Active means: 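Called active if the normalised E2F reporter went up by over 50%; the cutoff is arbitrary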
The deposit covers about 21,000 reagents; shown is an unselected part of those with a known target gene and a result. Over the whole deposit, 18 (0.084%) got an active call. 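Raw counts without plate normalisation, one of two replicates; the ratio scores behind the calls were not deposited.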 Reagents against one gene are numbered here. Not given: the amount of reagent, the time to read-out.

The first 13 entries, ahead of the listing:
gene | dsRNA no. | E2F firefly, rep 1 | Renilla normaliser, rep 1 | activity call
CG13449 | 1 | 1.73e5 | 7223 | inactive
PAPLA1 (Phosphatidic Acid Phospholipase A1) | 1 | 87595 | 4144 | inactive
PAPLA1 (Phosphatidic Acid Phospholipase A1) | 2 | 1.42e5 | 4663 | inactive
Osi11 (Osiris 11) | 1 | 1.26e5 | 5663 | inactive
Nepl9 (Neprilysin-like 9) | 1 | 1.00e5 | 4266 | inactive
Trf5 (TBP-related factor 5) | 1 | 1.73e5 | 5824 | inactive
CG10996 | 1 | 1.39e5 | 4854 | inactive
CG33958 | 1 | 1.61e5 | 5070 | inactive
CG33958 | 2 | 1.52e5 | 5229 | inactive
Pgant1 (Polypeptide N-Acetylgalactosaminyltransferase 1) | 1 | 94060 | 3996 | inactive
CG5506 | 1 | 1.73e5 | 9527 | inactive
Slc25A46a | 1 | 8401 | 804 | inactive
CG10584 | 1 | 1.33e5 | 7413 | inactive

The listing, from the start:
gene | dsRNA no. | E2F firefly, rep 1 | Renilla normaliser, rep 1 | activity call
CG13449 | 1 | 1.73e5 | 7223 | inactive
PAPLA1 (Phosphatidic Acid Phospholipase A1) | 1 | 87595 | 4144 | inactive
PAPLA1 (Phosphatidic Acid Phospholipase A1) | 2 | 1.42e5 | 4663 | inactive
Osi11 (Osiris 11) | 1 | 1.26e5 | 5663 | inactive
Nepl9 (Neprilysin-like 9) | 1 | 1.00e5 | 4266 | inactive
Trf5 (TBP-related factor 5) | 1 | 1.73e5 | 5824 | inactive
CG10996 | 1 | 1.39e5 | 4854 | inactive
CG33958 | 1 | 1.61e5 | 5070 | inactive
CG33958 | 2 | 1.52e5 | 5229 | inactive
Pgant1 (Polypeptide N-Acetylgalactosaminyltransferase 1) | 1 | 94060 | 3996 | inactive
CG5506 | 1 | 1.73e5 | 9527 | inactive
Slc25A46a | 1 | 8401 | 804 | inactive
CG10584 | 1 | 1.33e5 | 7413 | inactive
CG8028 | 1 | 1.34e5 | 6666 | inactive
msl-3 (male-specific lethal 3) | 1 | 90580 | 3484 | inactive
pall (pallbearer) | 1 | 79662 | 3810 | inactive
CG43897 | 1 | 75559 | 4710 | inactive
CG43897 | 2 | 1.16e5 | 6483 | inactive
CG13891 | 1 | 95864 | 3803 | inactive
dlp (dally-like) | 1 | 1.00e5 | 3278 | inactive
dlp (dally-like) | 2 | 1.53e5 | 7284 | inactive
Sumo (Small ubiquitin like modifier) | 1 | 58241 | 3349 | inactive
CG6785 | 1 | 66558 | 3551 | inactive
CG6873 | 1 | 1.23e5 | 6278 | inactive
pum (pumilio) | 1 | 80725 | 3316 | inactive
pum (pumilio) | 2 | 85040 | 3192 | inactive
pum (pumilio) | 3 | 1.25e5 | 5584 | inactive
pum (pumilio) | 4 | 1.40e5 | 6511 | inactive
CG3434 | 1 | 69047 | 3682 | inactive
CG2061 | 1 | 8319 | 656 | inactive
CG15042 | 1 | 1.48e5 | 5337 | inactive
CG40282 (retired record) | 1 | 1.04e5 | 4382 | inactive
CalpC (Calpain C) | 1 | 1.21e5 | 5043 | inactive
TotC (Turandot C) | 1 | 77227 | 2300 | inactive
shi (shibire) | 1 | 7491 | 712 | inactive
CG8138 | 1 | 1.09e5 | 5262 | inactive
Ugt316A1 (UDP-glycosyltransferase family 316 member A1) | 1 | 1.40e5 | 6823 | inactive
CG32148 | 1 | 1.42e5 | 3929 | inactive
CG34265 | 1 | 1.48e5 | 4664 | inactive
Ugt50B3 (UDP-glycosyltransferase family 50 member B3) | 1 | 1.28e5 | 3551 | inactive
Ugt50B3 (UDP-glycosyltransferase family 50 member B3) | 2 | 1.30e5 | 5914 | inactive
Kdm5 (Lysine demethylase 5) | 1 | 50288 | 208 | inactive
CG2924 | 1 | 1568 | 980 | inactive
RpL8 (Ribosomal protein L8) | 1 | 65383 | 4443 | inactive
RpL8 (Ribosomal protein L8) | 2 | 61110 | 4449 | inactive
CG15515 | 1 | 1.31e5 | 7494 | inactive
CG16952 | 1 | 1.45e5 | 6596 | inactive
CG32628 (retired record) | 1 | 90642 | 4653 | inactive
Gem2 (Gemin 2) | 1 | 73823 | 3804 | inactive
Dh44 (Diuretic hormone 44) | 1 | 65925 | 3431 | inactive
Dh44 (Diuretic hormone 44) | 2 | 1.47e5 | 5918 | inactive
upd1 (unpaired 1) | 1 | 1.54e5 | 7304 | inactive
Dhc93AB (Dynein heavy chain at 93AB) | 1 | 1.34e5 | 6881 | inactive
EloA (Elongin A) | 1 | 73679 | 3984 | inactive
TfIIA-S (Transcription-factor-IIA-S) | 1 | 82720 | 5583 | inactive
Jig | 1 | 1.32e5 | 6981 | inactive
Pex19 (Peroxin 19) | 1 | 84107 | 3555 | inactive
Pli (Pellino) | 1 | 77498 | 3183 | inactive
CG2663 | 1 | 1.21e5 | 5748 | inactive
p24-1 (p24-related-1) | 1 | 79204 | 4864 | inactive
Trc8 (TRC8 ring finger protein) | 1 | 1692 | 1047 | inactive
CG17600 | 1 | 1.38e5 | 5773 | inactive
CG17600 | 2 | 1.32e5 | 6481 | inactive
ND-19 (NADH dehydrogenase (ubiquinone) 19 kDa subunit) | 1 | 1.18e5 | 4475 | inactive
CG9192 | 1 | 95887 | 4304 | inactive
CG10734 | 1 | 1.48e5 | 5643 | inactive
CG16837 | 1 | 1.11e5 | 4361 | inactive
alpha4GT1 (alpha1,4-galactosyltransferase 1) | 1 | 85417 | 3450 | inactive
Polr3H (RNA polymerase III subunit H) | 1 | 1.30e5 | 7317 | inactive
Cyt-b5 (Cytochrome b5) | 1 | 3004 | 172 | inactive
CG8927 | 1 | 1.12e5 | 6529 | inactive
CG4404 | 1 | 55536 | 4738 | inactive
MME1 (Mitochondrial Magnesium Exporter 1) | 1 | 1.01e5 | 3727 | inactive
azot (ahuizotl) | 1 | 1.47e5 | 4860 | inactive
CG15480 | 1 | 1.07e5 | 4023 | inactive
tio (tiptop) | 1 | 1.04e5 | 4690 | inactive
hng2 (hinge2) | 1 | 1.21e5 | 6946 | inactive
CG13606 | 1 | 1.11e5 | 6017 | inactive
Tab2 (TAK1-associated binding protein 2) | 1 | 1.44e5 | 4758 | inactive
CG15029 (retired record) | 1 | 1.31e5 | 5839 | inactive
Sac1 (Sac1 phosphatase) | 1 | 74300 | 3448 | inactive
CG42686 (retired record) | 1 | 57213 | 4204 | inactive
CG42686 (retired record) | 2 | 1.11e5 | 5333 | inactive
CG3091 | 1 | 1.19e5 | 5167 | inactive
eIF4E6 (eukaryotic translation initiation factor 4E6) | 1 | 1.31e5 | 5605 | inactive
CG4367 | 1 | 1.59e5 | 6911 | inactive
TwdlK (TweedleK) | 1 | 78636 | 6918 | inactive
lds (lodestar) | 1 | 1.31e5 | 6722 | inactive
CG13385 | 1 | 1.43e5 | 5156 | inactive
CG6231 | 1 | 1.61e5 | 7695 | inactive
Tsf3 (Transferrin 3) | 1 | 75470 | 3399 | inactive
CG14990 | 1 | 94482 | 3966 | inactive
CG16812 | 1 | 81653 | 3397 | inactive
CG33460 | 1 | 1.26e5 | 5174 | inactive
kmr (kramer) | 1 | 83660 | 2989 | inactive
kmr (kramer) | 2 | 87221 | 5461 | inactive
kmr (kramer) | 3 | 1.04e5 | 4932 | inactive
kmr (kramer) | 4 | 80471 | 3882 | inactive
Rlb1 | 1 | 1.65e5 | 6401 | inactive
Or59b (Odorant receptor 59b) | 1 | 1.06e5 | 4473 | inactive
CG33178 | 1 | 1.29e5 | 5753 | inactive
Nhe3 (Na[+]/H[+] hydrogen exchanger 3) | 1 | 1.48e5 | 4947 | inactive
CG13506 | 1 | 98588 | 3850 | inactive
CG6688 | 1 | 1.13e5 | 5673 | inactive
Eip78C (Ecdysone-induced protein 78C) | 1 | 86135 | 4488 | inactive
Arp8 (Actin-related protein 8) | 1 | 1.46e5 | 5211 | inactive
CG13032 | 1 | 1.59e5 | 7438 | inactive
